# In article PMC3639248:
# The chains behind the UniProt entries cited, without tags or fusion partners. Residues count along the entry.
# UniProt O75581, residues 20-1613: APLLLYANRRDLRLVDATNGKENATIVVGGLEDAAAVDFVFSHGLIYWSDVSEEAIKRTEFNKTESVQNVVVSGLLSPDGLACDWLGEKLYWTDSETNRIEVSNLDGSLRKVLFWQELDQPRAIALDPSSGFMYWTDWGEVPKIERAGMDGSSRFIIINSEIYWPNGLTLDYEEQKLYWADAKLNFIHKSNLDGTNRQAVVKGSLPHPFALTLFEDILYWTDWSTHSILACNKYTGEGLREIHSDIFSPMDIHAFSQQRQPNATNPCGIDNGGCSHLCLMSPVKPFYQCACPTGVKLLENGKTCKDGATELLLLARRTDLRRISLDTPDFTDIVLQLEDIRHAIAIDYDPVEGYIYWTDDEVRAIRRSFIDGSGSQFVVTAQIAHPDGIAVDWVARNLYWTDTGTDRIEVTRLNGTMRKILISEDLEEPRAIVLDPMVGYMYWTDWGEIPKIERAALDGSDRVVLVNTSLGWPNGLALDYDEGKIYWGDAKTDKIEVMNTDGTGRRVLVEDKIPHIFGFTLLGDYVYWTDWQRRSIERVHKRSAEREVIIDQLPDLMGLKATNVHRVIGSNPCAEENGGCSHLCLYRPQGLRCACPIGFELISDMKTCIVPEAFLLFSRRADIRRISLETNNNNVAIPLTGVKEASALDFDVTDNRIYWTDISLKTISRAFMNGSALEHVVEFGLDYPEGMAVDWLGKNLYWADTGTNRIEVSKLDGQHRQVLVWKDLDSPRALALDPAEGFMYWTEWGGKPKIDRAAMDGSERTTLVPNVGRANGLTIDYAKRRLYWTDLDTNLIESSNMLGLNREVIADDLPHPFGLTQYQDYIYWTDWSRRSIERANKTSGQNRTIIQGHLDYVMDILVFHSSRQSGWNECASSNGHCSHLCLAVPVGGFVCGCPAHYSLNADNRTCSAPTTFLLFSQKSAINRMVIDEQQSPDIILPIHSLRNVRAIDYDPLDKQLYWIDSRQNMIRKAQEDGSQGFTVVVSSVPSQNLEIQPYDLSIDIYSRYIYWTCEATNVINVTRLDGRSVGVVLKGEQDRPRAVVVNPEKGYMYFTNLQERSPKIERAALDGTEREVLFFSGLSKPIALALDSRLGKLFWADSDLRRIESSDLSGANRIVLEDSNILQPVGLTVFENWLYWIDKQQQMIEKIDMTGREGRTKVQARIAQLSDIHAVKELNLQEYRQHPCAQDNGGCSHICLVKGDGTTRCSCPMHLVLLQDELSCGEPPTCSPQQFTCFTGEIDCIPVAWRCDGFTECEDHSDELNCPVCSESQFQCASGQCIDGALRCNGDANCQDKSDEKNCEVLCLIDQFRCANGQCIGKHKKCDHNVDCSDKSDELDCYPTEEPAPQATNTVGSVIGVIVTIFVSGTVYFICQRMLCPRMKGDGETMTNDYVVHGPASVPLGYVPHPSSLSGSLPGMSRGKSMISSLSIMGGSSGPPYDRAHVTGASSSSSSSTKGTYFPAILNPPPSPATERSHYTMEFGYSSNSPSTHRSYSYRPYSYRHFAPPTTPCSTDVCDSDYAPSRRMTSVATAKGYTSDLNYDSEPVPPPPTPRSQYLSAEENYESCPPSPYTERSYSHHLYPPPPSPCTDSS
# UniProt Q91VN0, residues 31-1614: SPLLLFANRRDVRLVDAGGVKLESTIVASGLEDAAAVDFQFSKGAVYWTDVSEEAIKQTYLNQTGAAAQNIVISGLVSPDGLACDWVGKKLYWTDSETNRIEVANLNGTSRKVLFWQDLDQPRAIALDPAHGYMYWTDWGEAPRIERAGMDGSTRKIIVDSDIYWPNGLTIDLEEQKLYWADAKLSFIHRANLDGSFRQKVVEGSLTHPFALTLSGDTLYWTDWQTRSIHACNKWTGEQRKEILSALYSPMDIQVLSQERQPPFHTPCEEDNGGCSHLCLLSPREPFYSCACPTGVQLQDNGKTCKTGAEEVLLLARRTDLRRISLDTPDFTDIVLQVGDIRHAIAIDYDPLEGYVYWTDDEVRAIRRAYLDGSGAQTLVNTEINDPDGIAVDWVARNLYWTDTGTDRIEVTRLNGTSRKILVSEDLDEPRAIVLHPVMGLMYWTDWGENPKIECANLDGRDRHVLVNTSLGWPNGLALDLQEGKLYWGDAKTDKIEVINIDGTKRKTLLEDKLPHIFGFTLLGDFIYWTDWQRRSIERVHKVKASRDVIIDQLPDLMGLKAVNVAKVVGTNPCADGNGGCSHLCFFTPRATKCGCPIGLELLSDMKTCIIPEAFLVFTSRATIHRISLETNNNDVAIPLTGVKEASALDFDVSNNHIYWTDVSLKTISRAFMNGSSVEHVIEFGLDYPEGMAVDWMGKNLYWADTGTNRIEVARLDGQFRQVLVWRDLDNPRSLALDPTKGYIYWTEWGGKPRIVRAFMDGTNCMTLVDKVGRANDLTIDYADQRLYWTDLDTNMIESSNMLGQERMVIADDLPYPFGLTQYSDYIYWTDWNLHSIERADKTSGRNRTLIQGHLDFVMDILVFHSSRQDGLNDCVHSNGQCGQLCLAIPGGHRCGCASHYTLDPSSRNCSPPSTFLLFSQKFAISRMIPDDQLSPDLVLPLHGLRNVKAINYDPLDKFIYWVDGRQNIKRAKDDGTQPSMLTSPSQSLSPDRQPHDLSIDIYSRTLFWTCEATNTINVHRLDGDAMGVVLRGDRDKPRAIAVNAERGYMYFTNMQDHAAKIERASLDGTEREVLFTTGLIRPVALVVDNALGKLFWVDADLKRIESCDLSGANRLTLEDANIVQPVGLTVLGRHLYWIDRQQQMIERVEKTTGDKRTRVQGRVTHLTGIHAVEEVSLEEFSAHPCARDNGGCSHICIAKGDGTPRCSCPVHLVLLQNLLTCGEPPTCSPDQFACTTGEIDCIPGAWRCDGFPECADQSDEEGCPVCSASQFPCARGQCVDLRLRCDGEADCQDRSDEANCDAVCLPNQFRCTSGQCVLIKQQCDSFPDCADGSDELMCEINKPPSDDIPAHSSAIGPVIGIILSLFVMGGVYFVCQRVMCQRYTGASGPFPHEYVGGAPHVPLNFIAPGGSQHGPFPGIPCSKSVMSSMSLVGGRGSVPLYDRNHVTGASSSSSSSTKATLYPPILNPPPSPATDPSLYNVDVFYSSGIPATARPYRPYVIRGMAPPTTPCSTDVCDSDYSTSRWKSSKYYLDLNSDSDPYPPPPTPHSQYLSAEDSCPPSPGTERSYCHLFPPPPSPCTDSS
# UniProt Q99P68, residues 24-211: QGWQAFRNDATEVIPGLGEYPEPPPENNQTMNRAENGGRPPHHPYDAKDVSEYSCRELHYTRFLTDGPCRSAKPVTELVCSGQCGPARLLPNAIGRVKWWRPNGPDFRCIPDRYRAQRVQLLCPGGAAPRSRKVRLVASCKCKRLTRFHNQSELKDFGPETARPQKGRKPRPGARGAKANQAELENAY
# These are yes or no findings as the source states them, for the method shown. For part of these data: In cells and extracts the contact can be indirect. Some results given as binding are weak or reduced against the parent protein; the word gives no strength.
# How the values were obtained:
# [1] = molecular target: LRP6-V5 stably over-expressed on 293 cells (UniProt O75581); assay: confocal microscopy of GFP-fused ligand on cells; competition: 293-LRP6 cells incubated with Sclerostin-GFP and different amounts of non-tagged Sclerostin for 1.5 h at 4°C, then 30 min at 37°C, fixed; only the binder purified
# [2] = molecular target: LRP6-V5 stably over-expressed on 293 cells (UniProt O75581); assay: confocal microscopy of GFP-fused ligand on cells; Sclerostin-GFP pre-incubated with Fc or Fabs raised against Sclerostin for 30 min at room temperature, added to 293-LRP6 cells for 1.5 h at 4°C, then 30 min at 37°C, fixed; only the binder purified
# [3] = molecular target: LRP6-V5 stably over-expressed on 293 cells (UniProt O75581); assay: confocal microscopy of GFP-fused ligand on cells; 293 cells stably over-expressing LRP6 or with empty pcDNA3 vector, 500 ng/ml Sclerostin-GFP, 1.5 h at 4°C (methods: 2.5 h on ice), then 30 min at 37°C, fixed; also after Monodansylcadaverine (200 µM) or Nystatin (25 µg/ml); only the binder purified
# [4] = molecular target: low density lipoprotein receptor-related protein 5 (LRP5), endogenous on mouse mesenchymal cell lines (mouse (endogenous in C2C12, C3H10T1/2, ATDC5, KS483)) (UniProt Q91VN0); assay: cross-linking; KS483 cells affinity-labelled with [125I]Sclerostin pre-incubated for 30 min at room temperature with Fc, aGFP-IgG, AbD09097 or aSCL-IgG; chemical cross-linking, lysate on SDS-PAGE, phosphorimager; only the binder purified
# [5] = molecular target: low density lipoprotein receptor-related protein 5 (LRP5), endogenous on mouse mesenchymal cell lines (mouse (endogenous in C2C12, C3H10T1/2, ATDC5, KS483)) (UniProt Q91VN0); assay: cross-linking; cells affinity-labelled on ice for 3 h with [125I]Sclerostin, cross-linked with 0.27 mM DSS and 0.09 mM BS3 for 15 min, lysed, immunoprecipitated with anti-LRP5 or anti-LRP6, SDS-PAGE, phosphorimager; C2C12, C3H10T1/2, ATDC5 and KS483 cells; also KS483 cells with shRNA knock-down of LRP5 or LRP6; only the binder purified
binding [1],binding [2],binding [3],binding [4],binding [5],Substance
binds,binds,binds,,,Sclerostin-GFP fusion protein (recombinant murine Sclerostin with C-terminal eGFP) (from UniProt Q99P68 24-211)
,,,binds,binds weakly,"[125I]Sclerostin (recombinant murine full-length Sclerostin, iodinated) (from UniProt Q99P68 24-211)"
binds,,,,,non-tagged recombinant murine Sclerostin (from UniProt Q99P68 24-211)
